For two molecules, binding results are on record in PMC7966987, “Insights into the catalytic properties of the mitochondrial rhomboid protease PARL” (The Journal of Biological Chemistry, 2021).

Protein sequences, listed by entry. Tags and fused reporters are not part of them. Lines headed by an entry give the natural chain unless they say otherwise; changes in a name come on top.
UniProt Q9H300: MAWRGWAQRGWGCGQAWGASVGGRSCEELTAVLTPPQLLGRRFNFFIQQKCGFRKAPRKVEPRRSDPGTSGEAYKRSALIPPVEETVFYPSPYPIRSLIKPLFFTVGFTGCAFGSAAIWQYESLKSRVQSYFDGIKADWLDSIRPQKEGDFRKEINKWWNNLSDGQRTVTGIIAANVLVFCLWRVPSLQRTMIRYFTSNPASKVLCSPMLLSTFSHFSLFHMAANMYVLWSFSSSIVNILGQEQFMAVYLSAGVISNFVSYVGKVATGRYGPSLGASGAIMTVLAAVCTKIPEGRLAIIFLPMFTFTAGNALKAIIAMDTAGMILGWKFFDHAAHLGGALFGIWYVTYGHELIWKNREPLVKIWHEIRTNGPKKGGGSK
UniProt Q96HS1: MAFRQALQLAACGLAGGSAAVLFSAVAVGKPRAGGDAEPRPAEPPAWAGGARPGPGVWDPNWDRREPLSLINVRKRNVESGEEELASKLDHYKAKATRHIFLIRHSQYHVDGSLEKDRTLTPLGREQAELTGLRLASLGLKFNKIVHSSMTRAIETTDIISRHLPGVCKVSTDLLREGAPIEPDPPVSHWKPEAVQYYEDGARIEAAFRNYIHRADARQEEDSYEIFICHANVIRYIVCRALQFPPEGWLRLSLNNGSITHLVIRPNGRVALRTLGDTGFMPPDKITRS
UniProt Q9NR28: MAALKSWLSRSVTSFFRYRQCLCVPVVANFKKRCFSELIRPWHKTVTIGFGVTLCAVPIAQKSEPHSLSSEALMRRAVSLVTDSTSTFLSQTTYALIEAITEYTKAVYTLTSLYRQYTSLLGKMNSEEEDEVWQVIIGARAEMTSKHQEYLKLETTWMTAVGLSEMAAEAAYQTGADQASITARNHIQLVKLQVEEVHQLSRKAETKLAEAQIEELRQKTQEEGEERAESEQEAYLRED

These are yes or no findings as the source states them, for the method shown. Binding calls can cover weak binding; strength is not graded here.

Test [1] addresses PARLΔ77 (β-cleavage form of human PARL) (human) (UniProt Q9H300). Kind of test: competitive inhibition of FRET peptide cleavage (enzyme kinetics); PARLΔ77 0.8 μM; IQ-PGAM5 20-29 (0.13-19 μM) as main substrate; nonfluorescent PINK1 89-111 at 2.5, 5, 10, 20 μM; Michaelis–Menten plots fitted globally, competitive model; Kd represented by Ki; both purified.
For test [2] the target is unchanged. Put plainly: competitive inhibition of FRET peptide cleavage (enzyme kinetics); PARLΔ77 0.8 μM; IQ-Smac/Diablo 51-60 (0.3–25 μM) as main substrate; nonfluorescent PINK1 89-111 at 2.5, 5, 10, 20 μM; Michaelis–Menten plots fitted globally, competitive model; Kd represented by Ki; both purified.

On to AVLFSAVAVG (peptide, UniProt Q96HS1 20-29, EDANS/Dabcyl FRET tags (ends not stated)) [IQ-PGAM5^20–29 internally quenched peptide substrate], for which, in test [1], the binding result is reported as “binds”.

Consider GVTLCAVPIA (peptide, UniProt Q9NR28 51-60, EDANS/Dabcyl FRET tags (ends not stated)) [IQ-Smac/Diablo^51–60 internally quenched peptide substrate], for which the binding result in test [2] is listed as “binds”.
